According to patent US20170002393A1, “COMPOSITIONS AND METHODS FOR ANTIBODY PRODUCTION” (IMMUNOGEN, INC., priority 2013, published 2017):
“Also recorded” adds a separate entry of the source. Some entries repeat one wording, which the source may state once for all of them.

Key:
humanized N901 IgG1 = assay: Covalent modification of antibody (mass spectrometry of deglycosylated antibody); settings: mass spectrometry versus unreduced antibody; 1 mM agent with CHO cell lysate, 3 hours (concentration not given for coenzyme Q0)
anti-FOLR1 IgG1 = assay: Covalent modification of antibody (absorbance at 610 nm, mass spectrometry)

## O=C1c2ccccc2C(=O)c2cc(S(=O)(=O)O)ccc21 [AQS, anthraquinone-2-sulfonic acid]
Humanized N901 IgG1
  covalent modification of the antibody: did not covalently modify the antibody

## COC1=C(OC)C(=O)C(C)=CC1=O [coenzyme Q0, 2,3-dimethoxy-5-methyl-p-benzoquinone]
Humanized N901 IgG1
  covalent modification of the antibody: not covalently modified

## COC(=O)[C@@H](N)CSSC[C@H](N)C(=O)OC [CDME, L-cystine dimethyl ester]
Humanized N901 IgG1
  covalent modification of the antibody: did not covalently modify the antibody

## CN(C)c1ccc2nc3ccc(N(C)C)cc3[s+]c2c1 [methylene blue, Methylene blue]
anti-FOLR1 IgG1; 0.05 mM agent, absorbance at 610 nm, mass spectrometry
  covalent modification of the antibody: did not covalently modify the antibody; also recorded: did not lead to the modification of the antibody
anti-FOLR1 IgG1; after 0.05 mM methylene blue treatment, 2.2 hours
  absorbance at 610 nm of eluted neutralized antibody: 0.000

## O=C(O)CCCCC1CCSS1 (racemic) [lipoic acid, 1,2-dithiolane-3-pentanoic acid]
Humanized N901 IgG1
  covalent modification of the antibody: did not covalently modify the antibody
